Source: publication PMC4481117
These are yes or no findings as the source states them, for the method shown.

Chains of the proteins cited; added tags and fusions are not shown. Lines headed by an entry give the natural chain unless they say otherwise; changes in a name come on top.
UniProt P20701: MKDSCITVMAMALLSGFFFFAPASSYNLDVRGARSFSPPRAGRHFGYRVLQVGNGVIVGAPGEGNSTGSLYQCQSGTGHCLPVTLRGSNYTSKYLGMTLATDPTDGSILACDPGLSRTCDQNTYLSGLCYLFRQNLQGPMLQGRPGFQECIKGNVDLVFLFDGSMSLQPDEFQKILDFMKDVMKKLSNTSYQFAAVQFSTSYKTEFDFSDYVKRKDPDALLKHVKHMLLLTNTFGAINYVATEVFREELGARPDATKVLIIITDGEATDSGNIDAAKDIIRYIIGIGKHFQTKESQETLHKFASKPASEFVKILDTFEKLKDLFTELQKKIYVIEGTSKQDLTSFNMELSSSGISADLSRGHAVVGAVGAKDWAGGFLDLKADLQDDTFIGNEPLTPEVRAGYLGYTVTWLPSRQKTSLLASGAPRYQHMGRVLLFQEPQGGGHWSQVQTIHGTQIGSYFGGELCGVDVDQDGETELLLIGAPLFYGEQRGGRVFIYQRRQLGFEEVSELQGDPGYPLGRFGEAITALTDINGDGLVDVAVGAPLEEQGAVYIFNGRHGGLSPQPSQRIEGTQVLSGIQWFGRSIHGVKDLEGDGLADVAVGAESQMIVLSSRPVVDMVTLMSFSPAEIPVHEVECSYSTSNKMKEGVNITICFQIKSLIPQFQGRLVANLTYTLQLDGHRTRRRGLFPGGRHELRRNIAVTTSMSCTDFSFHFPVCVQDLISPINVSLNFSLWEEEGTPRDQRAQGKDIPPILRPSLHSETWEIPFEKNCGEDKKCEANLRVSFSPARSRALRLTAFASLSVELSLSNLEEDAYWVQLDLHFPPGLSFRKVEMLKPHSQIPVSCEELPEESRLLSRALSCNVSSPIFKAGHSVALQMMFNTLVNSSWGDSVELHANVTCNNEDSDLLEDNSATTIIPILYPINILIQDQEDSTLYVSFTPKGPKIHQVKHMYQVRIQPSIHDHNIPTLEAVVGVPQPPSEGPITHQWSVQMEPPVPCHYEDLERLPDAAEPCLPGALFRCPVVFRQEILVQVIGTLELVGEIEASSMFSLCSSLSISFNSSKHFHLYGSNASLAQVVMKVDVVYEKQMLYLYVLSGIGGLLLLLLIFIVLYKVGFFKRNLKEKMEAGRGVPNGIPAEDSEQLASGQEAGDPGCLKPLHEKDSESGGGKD

Biological target: T1, dynorphin B
T1 sequence (peptide): YGGFLRRQFKVVT
Assay: cell adhesion assay; peptides coated on microtiter wells (3 h, 37 °C), post-coated with 1 % PVP; calcein-labeled HEK293 transfectants, 5x10^4 cells per well, 30 min at 37 °C; concentrations are coating concentrations; only the target purified

In the case of “integrin LFA-1 (αLβ2, CD11a/CD18) on HEK293 cells (from UniProt P20701 26-1170; P05107 23-769) (receptor)”, the binding is reported as “no binding (tested: 10 μM (coating))”.
